Results are given in words; binding and its absence hold for the method and conditions named. For some of these results: Tags and fused reporters may be left off the sequences shown.

The target in assay [1] is T1, Methanocaldococcus infernus Elp3, full length (Methanocaldococcus infernus) (UniProt D5VRB9).
T1 sequence: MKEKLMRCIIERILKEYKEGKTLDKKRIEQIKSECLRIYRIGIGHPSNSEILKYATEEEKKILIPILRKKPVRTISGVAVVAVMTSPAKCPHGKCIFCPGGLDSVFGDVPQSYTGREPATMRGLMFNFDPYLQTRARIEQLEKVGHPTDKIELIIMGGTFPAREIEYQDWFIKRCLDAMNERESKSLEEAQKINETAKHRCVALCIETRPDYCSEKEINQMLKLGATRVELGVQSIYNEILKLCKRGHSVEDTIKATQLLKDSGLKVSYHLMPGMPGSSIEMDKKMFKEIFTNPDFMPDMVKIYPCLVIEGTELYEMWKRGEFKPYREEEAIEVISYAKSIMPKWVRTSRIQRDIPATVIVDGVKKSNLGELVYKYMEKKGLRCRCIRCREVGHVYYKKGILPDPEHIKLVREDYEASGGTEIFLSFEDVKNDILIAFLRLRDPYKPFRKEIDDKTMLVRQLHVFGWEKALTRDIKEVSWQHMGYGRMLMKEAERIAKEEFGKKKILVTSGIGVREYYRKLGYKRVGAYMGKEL
Briefly: condition: 1.6 mM peptide in the syringe, 10–12 µM protein in the cell; ITC; MinElp3 (10–12 µM) in the cell, peptide in the syringe (2.47 mM, H3 1.6 mM); 20 mM HEPES pH 7.5, 150 mM NaCl, 1 mM β-mercaptoethanol; 25 °C; both purified.

Assay [2] deals with T1, Methanocaldococcus infernus Elp3, full length (Methanocaldococcus infernus). Briefly: condition: 2.47 mM peptide in the syringe, 10–12 µM protein in the cell; ITC; MinElp3 (10–12 µM) in the cell, peptide in the syringe (2.47 mM, H3 1.6 mM); 20 mM HEPES pH 7.5, 150 mM NaCl, 1 mM β-mercaptoethanol; 25 °C; both purified.
Assay [3] deals with T2, Cy5-labeled histone H3 peptide.
T2 sequence (peptide, Cyanine5 on the N-terminal amino group; C-terminal amide): YSTGGKAPRK
Description: condition: MinElp3 15 g/l in twofold serial dilutions, peptide 10 nM; MST; MinElp3 (15 g/l) in twofold serial dilutions, Cy-labeled H3 peptide 10 nM; 25 °C; both purified.

Assay [4] has as its target T1, Methanocaldococcus infernus Elp3, full length (Methanocaldococcus infernus). Briefly: SEC; S200 gel filtration, 20 mM HEPES pH 7.5, 150 mM NaCl, 5 mM DTT; aerobic purification; masses of the monomeric forms confirmed by SDS-PAGE and light scattering (RALS and LALS); both purified.

Take YSTGGKAPRK (N-terminal acetylation; C-terminal amide) [histone H3 peptide H3(10–18) with an added N-terminal tyrosine]: the binding entry in assay [1] is given as “no binding”.
For YMPSDKTIGG (N-terminal acetylation; C-terminal amide) [alpha-tubulin peptide Tubulin(36–44) with an added N-terminal tyrosine], the binding result in assay [2] is “no binding”.

B1: Methanocaldococcus infernus Elp3, full length (enzyme, UniProt D5VRB9 1-534)
chain: MKEKLMRCIIERILKEYKEGKTLDKKRIEQIKSECLRIYRIGIGHPSNSEILKYATEEEKKILIPILRKKPVRTISGVAVVAVMTSPAKCPHGKCIFCPGGLDSVFGDVPQSYTGREPATMRGLMFNFDPYLQTRARIEQLEKVGHPTDKIELIIMGGTFPAREIEYQDWFIKRCLDAMNERESKSLEEAQKINETAKHRCVALCIETRPDYCSEKEINQMLKLGATRVELGVQSIYNEILKLCKRGHSVEDTIKATQLLKDSGLKVSYHLMPGMPGSSIEMDKKMFKEIFTNPDFMPDMVKIYPCLVIEGTELYEMWKRGEFKPYREEEAIEVISYAKSIMPKWVRTSRIQRDIPATVIVDGVKKSNLGELVYKYMEKKGLRCRCIRCREVGHVYYKKGILPDPEHIKLVREDYEASGGTEIFLSFEDVKNDILIAFLRLRDPYKPFRKEIDDKTMLVRQLHVFGWEKALTRDIKEVSWQHMGYGRMLMKEAERIAKEEFGKKKILVTSGIGVREYYRKLGYKRVGAYMGKEL
As to B1, the binding entry in assay [3] and in assay [4] was “no binding” in each case.

Source of the values: paper PMC6367351 (Nature Communications, 2019).
